Source: patent publication US9872875B2, “Component and method for treating viral disease” (Institut Pasteur of Shanghai, Chinese Academy of Sciences, priority 2012, dated 2018)
For at least one compound, name, drawing or mass did not settle the structure.

System: EV71
Experiment: Inhibition of EV71 replication in RD cells at 0.1, 1, 10 and 100 μM (CPE, crystal violet)
Type: cell-based, Enterovirus 71
Conditions: 3~4 days
Description: Inhibitory effect of each P2X receptor antagonists and agonists on EV71 replication was measured at 0.1, 1, 10, and 100 μM. Specific procedures refer to “1” of Example 1. after infection, however, cells need to be incubated for 3˜4 days, stained with crystal violet, and observed under optical microscope to determine whether or not CPE (cytopathic effect) was present. In addition, the effect of compounds at each concentration on cytotoxicity to RD cells was determined. After culturing RD cells in various concentrations of compounds for 3˜4 days, stained with crystal violet, and observed under optical microscope to observe whether or not cell layer was damaged. Compounds capable of protecting cells from infection without damage of healthy cell layer can inhibit EV71 replication in RD cells.

Cc1nc(N=Nc2cc(S(=O)(=O)[O-])c3cc([N+](=O)[O-])cc(S(=O)(=O)[O-])c3c2)c(COP(=O)([O-])[O-])c(C=O)c1O.[Na+].[Na+].[Na+].[Na+] [PPNDS, Pyridoxal-5′-phosphate-6-(2′-naphthylazo-6′-nitro-4′,8′-disulfonate) tetrasodium salt]
Inhibition of EV71 replication 0.1 μM (0.1 μM): − | Inhibition of EV71 replication 1 μM (1 μM): − | Inhibition of EV71 replication 10 μM (10 μM): + | Inhibition of EV71 replication 100 μM (100 μM): +
